From paper PMC6915307

By UniProt entry, the sequences of proteins in these tests, tags left out. Where a name states a change or a piece, a line headed by the entry shows the natural chain unless it says otherwise.
UniProt P18206: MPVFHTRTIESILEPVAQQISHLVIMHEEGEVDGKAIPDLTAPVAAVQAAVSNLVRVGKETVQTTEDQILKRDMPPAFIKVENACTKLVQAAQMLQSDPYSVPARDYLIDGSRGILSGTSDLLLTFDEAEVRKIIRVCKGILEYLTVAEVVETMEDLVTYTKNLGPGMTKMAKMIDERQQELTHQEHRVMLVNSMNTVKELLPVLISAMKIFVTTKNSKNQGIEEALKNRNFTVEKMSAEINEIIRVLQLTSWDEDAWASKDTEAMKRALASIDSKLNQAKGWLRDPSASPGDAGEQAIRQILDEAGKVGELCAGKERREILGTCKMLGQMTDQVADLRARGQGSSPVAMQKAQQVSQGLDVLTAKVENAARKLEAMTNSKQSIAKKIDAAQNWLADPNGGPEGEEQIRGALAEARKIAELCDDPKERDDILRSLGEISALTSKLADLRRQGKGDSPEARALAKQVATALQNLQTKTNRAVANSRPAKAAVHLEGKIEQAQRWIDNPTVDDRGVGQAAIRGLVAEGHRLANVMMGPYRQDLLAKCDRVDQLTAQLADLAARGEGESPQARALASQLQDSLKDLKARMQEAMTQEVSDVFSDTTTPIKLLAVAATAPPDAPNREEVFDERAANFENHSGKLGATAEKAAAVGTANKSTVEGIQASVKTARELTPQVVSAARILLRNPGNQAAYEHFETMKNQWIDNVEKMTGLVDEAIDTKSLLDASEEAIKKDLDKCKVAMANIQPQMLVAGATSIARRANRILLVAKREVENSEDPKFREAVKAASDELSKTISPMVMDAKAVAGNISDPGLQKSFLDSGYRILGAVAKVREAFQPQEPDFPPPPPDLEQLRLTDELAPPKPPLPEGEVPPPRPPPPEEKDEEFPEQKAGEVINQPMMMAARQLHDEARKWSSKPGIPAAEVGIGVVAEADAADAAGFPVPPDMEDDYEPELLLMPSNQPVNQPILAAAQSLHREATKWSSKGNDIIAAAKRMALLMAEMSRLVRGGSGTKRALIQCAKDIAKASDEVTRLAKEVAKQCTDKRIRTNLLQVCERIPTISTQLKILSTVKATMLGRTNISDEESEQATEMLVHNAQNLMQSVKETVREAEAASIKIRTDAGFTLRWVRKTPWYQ
UniProt O96013: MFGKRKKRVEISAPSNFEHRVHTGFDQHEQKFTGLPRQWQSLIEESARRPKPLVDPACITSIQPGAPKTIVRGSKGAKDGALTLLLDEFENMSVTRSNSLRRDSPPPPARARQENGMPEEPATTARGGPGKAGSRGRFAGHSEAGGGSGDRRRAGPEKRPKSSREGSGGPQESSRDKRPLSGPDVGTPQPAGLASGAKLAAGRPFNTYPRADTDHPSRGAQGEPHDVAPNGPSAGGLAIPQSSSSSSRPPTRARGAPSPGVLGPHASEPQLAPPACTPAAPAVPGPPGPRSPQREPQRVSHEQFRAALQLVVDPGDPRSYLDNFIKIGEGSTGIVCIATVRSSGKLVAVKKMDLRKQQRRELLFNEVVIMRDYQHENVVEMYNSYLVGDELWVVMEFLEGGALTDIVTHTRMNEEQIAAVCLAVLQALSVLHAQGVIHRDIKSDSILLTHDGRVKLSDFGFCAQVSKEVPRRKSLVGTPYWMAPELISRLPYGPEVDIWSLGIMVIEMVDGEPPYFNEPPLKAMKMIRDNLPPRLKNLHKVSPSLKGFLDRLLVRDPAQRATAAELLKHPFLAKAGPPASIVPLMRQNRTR

How the values were obtained:
[1] = molecular target: vinculin (human (endogenous in THP-1)) (UniProt P18206); experiment: co-IP; THP-1 cells stably expressing EGFP-PAK4, seeded on fibronectin with TGF-beta for 16 h; lysate (0.5% NP-40 lysis buffer) incubated with 1-2 ug anti-paxillin or anti-vinculin overnight at 4 C, protein A/G agarose; blots probed for PAK4 and reprobed for GFP
[2] = molecular target: vinculin (human (endogenous in THP-1)) (UniProt P18206); experiment: co-IP; endogenous PAK4 in immunoprecipitates when a large number of cells was used (Figure S4C)

Row | binding [1] | binding [2] | Substance
1 | binds |  | EGFP-PAK4 (from UniProt O96013 1-591) (enzyme)
2 |  | binds weakly | endogenous PAK4 (from UniProt O96013 1-591) (enzyme)

No constants are given. Whether binding was seen depends on the method and setting. Binding seen in cells or lysates may run through a third protein. A result given as binding can be weak or reduced; the word gives no strength.
